# Source: the supplement of paper PMC8728848
# The other results are listed elsewhere or left out.
# B1: B3GalT2 (Rattus norvegicus) (protein)
# chain: LMLQWRRRHCCFAKMSWNAKRSLFRTHLMGVLSLVFLFAMFLFFNHHDWLPGRPGFKENPVTYTFRGFRSTKTETNQSSLRNIWKEVVPQTLRPQTATNSNNTELSPQGVTGLENTLSANGSIYNEKGTGHPNSYHFKYIINEPEKCQEKSPFLILLIAAEPGQIEARRAIRQTWGNETLAPGIQITRIFLLGISIKLNGYLQHAIQEESIQYHDIIQQEYLDTYYNLTIKTLMGMNWVATYCPHTPYVMKTDSDMFVNTEYLIHKLLKPDLPPRHNYFTGYLMRGYAPNRNKDSKWYMPPDLYPSERYPVFCSGTGYVFSGDLAEKIFKVSLGIRRLHLEDVYVGICLAKLRVDPVPPPNEFVFNHWRVSYSSCKYSHLITSHQFQPSELIKYWNHLQQNKHNACVNAAKEKAGRYRHRKLH
# How the values were obtained:
# Experiment in all cases: glycan array binding signal (z-score within array); higher = stronger binding
# Conditions in all cases: glycan notation: IUPAC condensed, linker removed
# [1] = target: Neu5Ac(a2-6)Gal(b1-4)GlcNAc(b1-2)Man(a1-3)[Neu5Ac(a2-3)Gal(b1-4)GlcNAc(b1-2)Man(a1-6)]Man(b1-4)GlcNAc(b1-4)GlcNAc
# Outline: (§1)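 Glycan array data were curated from 3228 arrays in the Consortium for Functional Glycomics database and kept only where the protein sequence was available. Glycan names were converted to IUPAC-condensed notation, and columns mapping to the same glycan were averaged. The binding signal is a within-array Z-score, averaged across arrays of the same protein sequence at different concentrations or buffers and across linkers. Negative Z-scores can be read as non-binding.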
# [2] = target: Neu5Ac(a2-6)Gal(b1-4)GlcNAc(b1-2)Man(a1-3)[Neu5Ac(a2-6)Gal(b1-4)GlcNAc(b1-2)Man(a1-6)]Man(b1-4)GlcNAc(b1-4)GlcNAc
# Outline: as §1
# [3] = target: Neu5Ac(a2-6)Gal(b1-4)GlcNAc(b1-2)Man(a1-3)[Neu5Ac(a2-6)Gal(b1-4)GlcNAc(b1-2)Man(a1-6)]Man(b1-4)GlcNAc(b1-4)[Fuc(a1-6)]GlcNAc
# Outline: as §1
# [4] = target: Neu5Ac(a2-6)Gal(b1-4)GlcNAc(b1-2)Man(a1-6)Man(b1-4)GlcNAc(b1-4)GlcNAc
# Outline: as §1
# [5] = target: Neu5Ac(a2-6)Gal(b1-4)GlcNAc(b1-2)Man(a1-6)[Gal(b1-4)GlcNAc(b1-2)Man(a1-3)]Man(b1-4)GlcNAc(b1-4)GlcNAc
# Outline: as §1
# [6] = target: Neu5Ac(a2-6)Gal(b1-4)GlcNAc(b1-2)Man(a1-6)[GlcNAc(b1-2)Man(a1-3)]Man(b1-4)GlcNAc(b1-4)GlcNAc
# Outline: as §1
# [7] = target: Neu5Ac(a2-6)Gal(b1-4)GlcNAc(b1-2)Man(a1-6)[Man(a1-3)]Man(b1-4)GlcNAc(b1-4)GlcNAc
# Outline: as §1
# [8] = target: Neu5Ac(a2-6)Gal(b1-4)GlcNAc(b1-2)[Neu5Ac(a2-6)Gal(b1-4)GlcNAc(b1-4)]Man(a1-3)[GlcNAc(b1-4)][Neu5Ac(a2-6)Gal(b1-4)GlcNAc(b1-2)[Neu5Ac(a2-6)Gal(b1-4)GlcNAc(b1-6)]Man(a1-6)]Man(b1-4)GlcNAc(b1-4)GlcNAc
# Outline: as §1
# [9] = target: Neu5Ac(a2-6)Gal(b1-4)GlcNAc(b1-2)[Neu5Ac(a2-6)Gal(b1-4)GlcNAc(b1-4)]Man(a1-3)[GlcNAc(b1-4)][Neu5Ac(a2-6)Gal(b1-4)GlcNAc(b1-4)Man(a1-6)]Man(b1-4)GlcNAc(b1-4)GlcNAc
# Outline: as §1
# [10] = target: Neu5Ac(a2-6)Gal(b1-4)GlcNAc(b1-2)[Neu5Ac(a2-6)Gal(b1-4)GlcNAc(b1-6)]Man(a1-6)[Neu5Ac(a2-6)Gal(b1-4)GlcNAc(b1-2)Man(a1-3)][GlcNAc(b1-4)]Man(b1-4)GlcNAc(b1-4)GlcNAc
# Outline: as §1
# [11] = target: Neu5Ac(a2-6)Gal(b1-4)GlcNAc(b1-3)Gal(b1-3)GlcNAc
# Outline: as §1
# [12] = target: Neu5Ac(a2-6)Gal(b1-4)GlcNAc(b1-3)Gal(b1-4)GlcNAc
# Outline: as §1
# [13] = target: Neu5Ac(a2-6)Gal(b1-4)GlcNAc(b1-3)Gal(b1-4)GlcNAc(b1-2)Man(a1-3)[Neu5Ac(a2-6)Gal(b1-4)GlcNAc(b1-3)Gal(b1-4)GlcNAc(b1-2)Man(a1-6)]GalNAc
# Outline: as §1
# [14] = target: Neu5Ac(a2-6)Gal(b1-4)GlcNAc(b1-3)Gal(b1-4)GlcNAc(b1-3)Gal(b1-4)GlcNAc
# Outline: as §1
# [15] = target: Neu5Ac(a2-6)Gal(b1-4)GlcNAc(b1-3)Gal(b1-4)GlcNAc(b1-3)Gal(b1-4)GlcNAc(b1-2)Man(a1-3)[Neu5Ac(a2-6)Gal(b1-4)GlcNAc(b1-3)Gal(b1-4)GlcNAc(b1-3)Gal(b1-4)GlcNAc(b1-2)Man(a1-6)]GalNAc
# Outline: as §1
# [16] = target: Neu5Ac(a2-6)Gal(b1-4)GlcNAc(b1-3)Gal(b1-4)GlcNAc(b1-3)GalNAc
# Outline: as §1
# [17] = target: Neu5Ac(a2-6)Gal(b1-4)GlcNAc(b1-3)Gal(b1-4)GlcNAc(b1-3)[Neu5Ac(a2-6)Gal(b1-4)GlcNAc(b1-3)Gal(b1-4)GlcNAc(b1-6)]GalNAc
# Outline: as §1
# [18] = target: Neu5Ac(a2-6)Gal(b1-4)GlcNAc(b1-3)Gal(b1-4)GlcNAc(b1-6)[Gal(b1-3)]GalNAc
# Outline: as §1
# [19] = target: Neu5Ac(a2-6)Gal(b1-4)GlcNAc(b1-3)Gal(b1-4)[Fuc(a1-3)]GlcNAc(b1-3)Gal(b1-4)[Fuc(a1-3)]GlcNAc
# Outline: as §1
# [20] = target: Neu5Ac(a2-6)Gal(b1-4)GlcNAc(b1-3)GalNAc
# Outline: as §1
# [21] = target: Neu5Ac(a2-6)Gal(b1-4)GlcNAc(b1-3)[Neu5Ac(a2-6)Gal(b1-4)GlcNAc(b1-6)]GalNAc
# Outline: as §1
# [22] = target: Neu5Ac(a2-6)Gal(b1-4)GlcNAc(b1-6)GalNAc
# Outline: as §1
# [23] = target: Neu5Ac(a2-6)Gal(b1-4)GlcNAc(b1-6)[Gal(b1-3)GlcNAc(b1-3)]Gal(b1-4)Glc
# Outline: as §1
# [24] = target: Neu5Ac(a2-6)Gal(b1-4)GlcNAc(b1-6)[Gal(b1-3)]GalNAc
# Outline: as §1
# [25] = target: Neu5Ac(a2-6)Gal(b1-4)GlcNAc6S
# Outline: as §1
# [26] = target: Neu5Ac(a2-6)GalNAc
# Outline: as §1
# [27] = target: Neu5Ac(a2-6)GalNAc(b1-4)GlcNAc
# Outline: as §1
# [28] = target: Neu5Ac(a2-6)GalNAc(b1-4)GlcNAc6S
# Outline: as §1
# [29] = target: Neu5Ac(a2-6)GlcNAc(b1-4)GlcNAc
# Outline: as §1
# [30] = target: Neu5Ac(a2-6)GlcNAc(b1-4)GlcNAc(b1-4)GlcNAc
# Outline: as §1
binder,measurement,setting,value
B1,glycan array binding signal (z-score),[1],-0.933
same,glycan array binding signal (z-score),[2],0.054
same,glycan array binding signal (z-score),[3],0.659
same,glycan array binding signal (z-score),[4],0.128
same,glycan array binding signal (z-score),[5],-0.96
same,glycan array binding signal (z-score),[6],-0.887
same,glycan array binding signal (z-score),[7],0.005
same,glycan array binding signal (z-score),[8],2.01
same,glycan array binding signal (z-score),[9],1.82
same,glycan array binding signal (z-score),[10],-0.403
same,glycan array binding signal (z-score),[11],-0.595
same,glycan array binding signal (z-score),[12],0.242
same,glycan array binding signal (z-score),[13],-0.161
same,glycan array binding signal (z-score),[14],0.619
same,glycan array binding signal (z-score),[15],2.1
same,glycan array binding signal (z-score),[16],-0.826
same,glycan array binding signal (z-score),[17],-0.723
same,glycan array binding signal (z-score),[18],-0.783
same,glycan array binding signal (z-score),[19],0.268
same,glycan array binding signal (z-score),[20],-0.64
same,glycan array binding signal (z-score),[21],-1.14
same,glycan array binding signal (z-score),[22],0.098
same,glycan array binding signal (z-score),[23],-0.215
same,glycan array binding signal (z-score),[24],-0.104
same,glycan array binding signal (z-score),[25],0.926
same,glycan array binding signal (z-score),[26],1.23
same,glycan array binding signal (z-score),[27],0.082
same,glycan array binding signal (z-score),[28],-0.328
same,glycan array binding signal (z-score),[29],-0.752
same,glycan array binding signal (z-score),[30],0.862

# Reprinted at random: two records from the list, in no set order.
binder,measurement,setting,value
B1,glycan array binding signal (z-score),[22],0.098
same,glycan array binding signal (z-score),[28],-0.328
